Assay: Volatile nitrogen (ammonia) release from fertilizer applied to moistened soil
Settings: 28° C., 15% moisture, 180 lb N/acre

NC(N)=O [Urea, urea]
Percent Urea Nitrogen Lost at 2 days (soil sample 1, pH 7.2): 52.3%
Percent Urea Nitrogen Lost at 4 days (soil sample 1, pH 7.2): 59.2%
Percent Urea Nitrogen Lost at 2 days (soil sample 2, pH 4.0): 21.6%
Percent Urea Nitrogen Lost at 4 days (soil sample 2, pH 4.0): 24.9%
Percent Urea Nitrogen Lost at 2 days (soil sample 3, pH 4.9): 34.0%
Percent Urea Nitrogen Lost at 4 days (soil sample 3, pH 4.9): 37.1%
Percent Urea Nitrogen Lost at 2 days (soil sample 4, pH 5.0): 31.1%
Percent Urea Nitrogen Lost at 4 days (soil sample 4, pH 5.0): 34.0%
